Assay results: PubChem BioAssay AID1347131 (National Center for Advancing Translational Sciences (NCATS), 2019)
The campaign covered roughly 410,000 compounds. About 2,000 (0.49%) were called active. Inconclusive means that the source gave no clear call. Such entries were picked first, then a sample of the others. The call rests on the fitted dose curve; tested in HEK293 reporter line. Potencies of inconclusive entries are doubtful fits and often do not repeat.

Assay: qHTS Assay for Foot and Mouth Disease Virus Antivirals: Primary Screen against the MLPCN compound library; further: nearly all actives have a fitted effect of over 55% in size
Conditions: FMDV antiviral cell-based qHTS; activity, negative = inhibition: at 57.9 µM (top of the series)
Potency means the concentration at half of the fitted maximal effect.

SMILES | Potency | activity, negative = inhibition
CN(C)c1ccc(-[n+]2c(-c3ccccc3)cc(-c3ccccc3)cc2-c2ccccc2)cc1 | inconclusive: 31.6 µM [inhibitor, partial curve, poor fit] | 
COc1ccc(-c2nsc3c(N4CCCCC4C)ncnc23)cc1 (configuration not stated) |  | inactive: -96.6%
COc1cccc(-c2nc(-c3ccccn3)no2)c1 | inconclusive: 20 µM [inhibitor, partial curve, poor fit] | 
Cc1ccc(-c2csc3ncnc(Sc4nnc(CN5CCCCCC5=O)o4)c23)cc1 | inconclusive: 14.1 µM [inhibitor, partial curve, poor fit] | 
O=C(N1CCN(c2cccc(Cl)c2)CC1)C1(c2cccs2)CCOCC1 | inconclusive: 35.5 µM [inhibitor, single point] | 
O=C(CN1CCN(C(C(=O)Nc2cc(C(F)(F)F)ccc2Cl)c2ccccc2)CC1)NC1CC1 (configuration not stated) | inconclusive: 39.8 µM [inhibitor, partial curve, poor fit] | 
COc1ccc(/C=C/C(=O)Nc2ccccc2F)cc1S(=O)(=O)N1CCOCC1 | inconclusive: 25.1 µM [inhibitor, partial curve, poor fit] | 
COc1ccccc1/C=C/C(=O)NCC(=O)N1CCC(N(C)C2CCCC2)CC1 | inconclusive: 3.16 µM [inhibitor, full curve] | 
N[C@@H](C(=O)O)c1ccc(O)c(C(=O)O)c1 | inconclusive: 7.94 µM [inhibitor, partial curve, poor fit] | 
COc1cccc(Oc2cnc(N)nc2-c2ccc(OC)cc2O)c1 |  | inactive: -31.8%
Cc1cc(/C=C2\SC(=S)N(C)C2=O)c(C)n1-c1ccc(O)cc1 | inconclusive: 0.891 µM [inhibitor, full curve, poor fit] | 
CCOC(=O)c1oc2c(CN3CCCCC3C)c(O)ccc2c(=O)c1-c1ccc(OC)c(OC)c1 (configuration not stated) | inconclusive: 7.94 µM [inhibitor, partial curve] | 
Cn1nc(C(C)(C)C)cc1NC(=O)C1(C)CCN1C(=O)Cc1ccc(-c2ccccc2)cc1 (configuration not stated) | inconclusive: 14.1 µM [inhibitor, single point] | 
Cc1nn(-c2ccccc2)c(C)c1/C=N/NC(=O)c1cc(-c2ccc(Cl)s2)[nH]n1 | inconclusive: 3.98 µM [inhibitor, full curve, poor fit] | 
Cc1cc(N2C(=O)C(O)=C(C(=O)c3cc4ccccc4o3)C2c2ccc(Br)cc2)no1 (configuration not stated) | inconclusive: 0.794 µM [inhibitor, full curve] | 
CCCC(=O)c1c[nH]c(C(=O)NCc2cccnc2)c1 | inconclusive: 8.91 µM [inhibitor, partial curve] | 
CCc1oc2c(C)c(O)ccc2c(=O)c1-c1ccc2ccccc2n1 | inconclusive: 15.8 µM [inhibitor, partial curve, poor fit] | 
NC(Cc1ccc(Cl)cc1)c1csc(Nc2nccc(C(F)(F)F)n2)n1 (configuration not stated) | inconclusive: 6.31 µM [inhibitor, partial curve] | 
Nc1nonc1-n1nnc(C(=O)N/N=C/c2ccc(Br)cc2)c1CSC1=NCCS1 | inconclusive: 39.8 µM [inhibitor, single point] | 

SMILES | Potency | activity, negative = inhibition
Cc1cccc(CN2C(=O)[C@H]3Cc4c([nH]c5ccccc45)C(C)(C)N3C2=O)c1 | inconclusive: 35.5 µM [inhibitor, partial curve, poor fit] | 
COc1ccc(CS(=O)(=O)/C(Cl)=C(/Cl)C(=O)Nc2ccc(OC)nc2)cc1 | inconclusive: 11.2 µM [inhibitor, partial curve, poor fit] | 
COc1cc(CNc2nc(C)c([N+](=O)[O-])c(C)c2C#N)cc(OC)c1OC | inconclusive: 25.1 µM [inhibitor, single point] | 
Cc1ccc(F)cc1CNC(=O)c1cc(COc2ccc3ncccc3c2)on1 | inconclusive: 25.1 µM [inhibitor, partial curve, poor fit] | 
COCCN1C(=O)CSCC1(C)C(=O)Nc1c(C)cccc1C (configuration not stated) | inconclusive: 2 µM [inhibitor, full curve] | 
CCN(CC)S(=O)(=O)c1cc(NC(=O)CSc2nnc(N)s2)ccc1C | inconclusive: 14.1 µM [inhibitor, partial curve] | 
COc1ccc(CCNC(=O)c2c(O)c3ccccc3n(C)c2=O)cc1 | inconclusive: 15.8 µM [inhibitor, partial curve, poor fit] | 
OC[C@@H]1CN(Cc2ccc(-c3ccccc3)cc2)C[C@H](n2cnc3c(NC4CCC4)ncnc32)O1 | inconclusive: 17.8 µM [inhibitor, partial curve, poor fit] | 
CC(=O)n1c(Cl)c(NC(=O)CCl)c2ccccc21 | inconclusive: 31.6 µM [inhibitor, partial curve, poor fit] | 
COc1ccc(OC)c(NC(=O)CN(c2ccc(C)cc2)S(=O)(=O)c2c(C)noc2C)c1 | inconclusive: 12.6 µM [inhibitor, partial curve, poor fit] | 
COc1cc(C)c(NC(=S)Nc2ccc(C)c(Cl)c2)cc1OC | inconclusive: 10 µM [inhibitor, partial curve] | 
O=C(COC(=O)CNC(=O)c1ccccc1F)NCCNC(=O)COC(=O)CNC(=O)c1ccccc1F |  | inconclusive: -30.4% [inhibitor]
CCc1ccc(NC(=O)COC(=O)C2(c3ccc(Cl)cc3)CCCC2)cc1 | inconclusive: 20 µM [inhibitor, partial curve, poor fit] | 
COc1cc(CNC(=O)c2cccc(COc3ccc(Cl)cc3)c2)cc(OC)c1 | inconclusive: 15.8 µM [inhibitor, single point] | 
O=C(c1cccn1-c1nnc(N2CCCC2)s1)N1CCN(c2ccc(Cl)cc2)CC1 | inconclusive: 25.1 µM [inhibitor, partial curve, poor fit] | 
CCOc1ccc(CCNC(=O)c2cnc3sc(N4CCCC4)nn3c2=O)cc1 | inconclusive: 28.2 µM [inhibitor, single point] | 
CCn1ccc2c(OCC(=O)Nc3ccccc3C(F)(F)F)cccc2c1=O | inconclusive: 31.6 µM [inhibitor, partial curve, poor fit] | 
COc1ccc(CN(C)C(=O)c2cc(S(=O)(=O)NCc3ccccc3)ccc2C)c(OC)c1 | inconclusive: 44.7 µM [inhibitor, single point] | 
CCC(C)n1c(S(=O)(=O)O)nc2ccccc21 (configuration not stated) |  | inactive: -41.2%

Copied from the list.
Potency with `COCCN1C(=O)CSCC1(C)C(=O)Nc1c(C)cccc1C` (configuration not stated) is entered as inconclusive: 2 µM [inhibitor, full curve]
Potency with `CCn1ccc2c(OCC(=O)Nc3ccccc3C(F)(F)F)cccc2c1=O` is entered as inconclusive: 31.6 µM [inhibitor, partial curve, poor fit]

Following part.

SMILES | Potency | activity, negative = inhibition
Cc1ccc(Cl)cc1N1CCN(CCCNC(=O)c2ccc3nc(N4CCCCC4)sc3c2)CC1 | inconclusive: 39.8 µM [inhibitor, single point] | 
COc1ccc(-c2noc(CN(C)CCC3CCCCO3)n2)cc1 (configuration not stated) | inconclusive: 12.6 µM [inhibitor, partial curve] | 
CCOC(=O)[C@]12Cc3c(cc(OC)c(OC)c3OC)[C@H]1N(C1CCCCC1)C(=O)c1ccccc12 | inconclusive: 8.91 µM [inhibitor, full curve, poor fit] | 
COc1cc(C(=O)NN=Cc2ccc(N(CCCl)CCCl)cc2)cc(OC)c1OC | inconclusive: 35.5 µM [inhibitor, partial curve, poor fit] | 
Cc1ccc(C(=O)OCC(=O)Nc2c(C)nn(-c3ccccc3)c2C)c(O)c1 | inconclusive: 1.12 µM [inhibitor, full curve] | 
Cc1ccc([N+](=O)[O-])cc1NC(=O)Nc1cccc(F)c1 | inconclusive: 28.2 µM [inhibitor, partial curve, poor fit] | 
CN(C)c1c2ccccc2nc2c(F)c(F)c(F)c(F)c12 | inconclusive: 28.2 µM [inhibitor, partial curve, poor fit] | 
COc1ccc(N2C(=O)CC(N3CCN(c4ccccc4)CC3)C2=O)cc1 (configuration not stated) | inconclusive: 2 µM [inhibitor, full curve] | 
CCOC(=O)CSc1ncc(OC)c(Sc2ccc(Cl)cc2)n1 | inconclusive: 11.2 µM [inhibitor, partial curve] | 
CCOc1ccc(-c2nnc(NC(=O)COc3ccccc3F)o2)cc1 |  | inactive: 119%
Cc1noc(C)c1S(=O)(=O)N1CCC(C(=O)Nc2ccc(OC(F)(F)F)cc2)CC1 | inconclusive: 10 µM [inhibitor, partial curve] | 
Cc1ccc(S(=O)(=O)N(C)C)cc1NC(=O)COC(=O)/C=C/c1ccc2c(c1)OCO2 | inconclusive: 11.2 µM [inhibitor, partial curve] | 
COC(=O)[C@@]1(Cc2ccc(OC)cc2)[C@H]2c3cc(C(=O)N(C)C)n(Cc4ccc(OC(F)(F)F)cc4)c3C[C@H]2CN1C(=O)c1ccccc1 | inconclusive: 14.1 µM [inhibitor, partial curve, poor fit] | 
O=C(Nc1ccc(-n2cnnn2)cc1)C(c1ccccc1)c1ccccc1 | inconclusive: 10 µM [inhibitor, partial curve] | 
Cc1ccc(NC(=O)c2cc3ccccc3oc2=N)cc1 | inconclusive: 10 µM [inhibitor, single point] | 
NC(=O)c1ccsc1NC(=O)COC(=O)/C=C/c1ccccc1[N+](=O)[O-] | inconclusive: 31.6 µM [inhibitor, partial curve, poor fit] | 
Cc1ccc(/C=N\NC(=O)c2csnn2)cc1 | inconclusive: 39.8 µM [inhibitor, single point] | 
CCOC(=O)C(C(C)=O)c1c(Br)c(O)c(O)c2c(C(=O)c3ccc(C)cc3)coc12 (configuration not stated) | inconclusive: 5.62 µM [inhibitor, partial curve] | 
Cc1cc(C)c2c(N)c(C(=O)Nc3ncc(C)s3)sc2n1 | inconclusive: 5.01 µM [inhibitor, full curve, poor fit] | 
